We go through 20 targets from the supplement of paper PMC11732987, “Enantioselective OTUD7B fragment discovery through chemoproteomics screening and high-throughput optimisation” (Communications Chemistry, 2025).

The list shows a part of the results. The data scatter; read single values as rough.

Compound in the first assay: ClCC(=O)N[C@@H]1CCCc2ccccc12
The experiment in a line: log2 mean competition ratio of IA-DTB cysteine labelling (DMSO/compound) (log2 ratio); higher = stronger cysteine engagement by compound. To be noted: 50 µM; treatment time: 4 h; cell line lysate: HEK293T. The method, then:
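IA-DTB competitive cysteine chemoproteomics in HEK293T RIPA lysate. Lysates were treated with compound 29 or 30 at 50 or 200 µM for 4 h, then IA-DTB (500 µM, 1 h), trypsin-digested, NeutrAvidin-enriched and analysed by diaPASEF. Competition ratio = intensity DMSO / intensity compound (n=4 treated, n=64 DMSO); binding: mean log2 CR ≥ 1 and p ≤ 0.05 plus QC filters. Target is the cysteine site.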
On to NEU3 C90 (UniProt Q9UQ49), for which the “log2 mean competition ratio” value is 0.0423.
For the target NIN C647 (UniProt Q8N4C6), the “log2 mean competition ratio” value is -0.335.
Still for that read-out and setting: next, NCK2 C297 (UniProt O43639): -0.0133; NCAPD3 C453 (UniProt P42695): 0.0268; NAV1 C337 (UniProt Q8NEY1): 0.0558.
Still for that read-out and setting: for NBEA C2007 (UniProt Q8NFP9) the value was 0.206; for NCAPD2 C596 (UniProt Q15021), 0.538.
On the same count and under the same terms, next, NEURL4 C1208 (UniProt Q96JN8): 0.247.
For the target NCAPG C509 (UniProt Q9BPX3), the “log2 mean competition ratio” value is -0.177.
On the same count and under the same terms, for NNT C308 (UniProt Q13423) the value was -0.00744.
On the same count and under the same terms, next, NOA1 C364 (UniProt Q8NC60): 0.379; NIPBL C1754 (UniProt Q6KC79): -0.236; NBAS C897 (UniProt A2RRP1): 0.39.
Regarding NCAPD3 C330 (UniProt P42695), the “log2 mean competition ratio” value was determined as 0.0353.
With NKX2-5 C114, the “log2 mean competition ratio” value was -0.163.
On the same count and under the same terms, next, NELFB C235 (UniProt Q8WX92): 0.284.
Turning to NBN C478 (UniProt O60934), the “log2 mean competition ratio” value was -0.275.
For the target NCAPG2 C401 (UniProt Q86XI2), the “log2 mean competition ratio” value amounted to 0.288.
Still for that read-out and setting: for NCAPG C667 (UniProt Q9BPX3) the value was -0.343.
NOL8 C630 (UniProt Q76FK4): the “log2 mean competition ratio” value is -0.00529.

Still in this assay, the particulars now being: 200 µM; treatment time: 4 h; cell line lysate: HEK293T.
NEU3 C90 (UniProt Q9UQ49): the “log2 mean competition ratio” value is -0.0613.
Same read-out and setting: for NIN C647 (UniProt Q8N4C6) the value was -0.109.
The same measure, in the same setting: next, NCK2 C297 (UniProt O43639): 0.0369; NCAPD3 C453 (UniProt P42695): -0.0515.
Consider NAV1 C337 (UniProt Q8NEY1), for which the “log2 mean competition ratio” value was 0.246.
Consider NBEA C2007 (UniProt Q8NFP9), for which the “log2 mean competition ratio” value worked out at 0.0259.
Take NCAPD2 C596 (UniProt Q15021): the “log2 mean competition ratio” value is -0.102.
On the same count and under the same terms, for NEURL4 C1208 (UniProt Q96JN8) the value was 0.0885; for NCAPG C509 (UniProt Q9BPX3), -0.107; for NNT C308 (UniProt Q13423), -0.254.
Still for that read-out and setting: for NOA1 C364 (UniProt Q8NC60) the value was -0.0106.
As for NIPBL C1754 (UniProt Q6KC79), the “log2 mean competition ratio” value came to 0.607.
The same measure, in the same setting: for NBAS C897 (UniProt A2RRP1) the value was 0.0666; for NCAPD3 C330 (UniProt P42695), 0.53.
On the same count and under the same terms, for NKX2-5 C114 the value was 0.0303.
Take NELFB C235 (UniProt Q8WX92): the “log2 mean competition ratio” value is -0.219.
In the case of NBN C478 (UniProt O60934), the “log2 mean competition ratio” value came out at 0.237.
Take NCAPG2 C401 (UniProt Q86XI2): the “log2 mean competition ratio” value was found to be 0.13.
With NCAPG C667 (UniProt Q9BPX3), the “log2 mean competition ratio” value is -0.193.
For NOL8 C630 (UniProt Q76FK4), the “log2 mean competition ratio” value is -0.247.
